In PMC1796551, “Breast cancer metastasis suppressor 1 (BRMS1) inhibits osteopontin transcription by abrogating NF-κB activation”:
Results are given in words; binding and its absence hold for the method and conditions named. Binding seen in cells or lysates may run through a third protein. Some binding calls cover weakened binding; strength is not graded here. Where a sequence is shown, tags or fusion partners need not be part of it.

By UniProt entry, the sequences of proteins in these tests, tags left out.
UniProt O15379: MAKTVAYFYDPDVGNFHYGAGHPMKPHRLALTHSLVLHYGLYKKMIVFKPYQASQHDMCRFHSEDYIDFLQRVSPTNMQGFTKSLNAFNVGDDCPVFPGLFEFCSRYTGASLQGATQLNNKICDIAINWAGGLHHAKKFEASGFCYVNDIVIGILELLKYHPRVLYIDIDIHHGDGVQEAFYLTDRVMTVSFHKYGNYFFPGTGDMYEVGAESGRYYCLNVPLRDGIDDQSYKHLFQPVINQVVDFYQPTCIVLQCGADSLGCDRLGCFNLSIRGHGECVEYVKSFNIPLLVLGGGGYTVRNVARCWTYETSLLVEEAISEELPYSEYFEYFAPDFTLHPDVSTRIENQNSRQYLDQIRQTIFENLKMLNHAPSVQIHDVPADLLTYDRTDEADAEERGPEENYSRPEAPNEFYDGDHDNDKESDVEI

Biological target: Histone deacetylase 3 (HDAC3), FLAG-tagged (UniProt O15379)
Experiment: co-IP; COS-7 cells co-transfected with FLAG-HDAC3 and myc-BRMS1; lysate immunoprecipitated with 1 ug anti-FLAG Ab, immunoblotted with anti-myc Ab (1:500)

binding: binds
B1: Breast cancer metastasis suppressor 1 (BRMS1), myc-tagged (protein, UniProt Q9HCU9 1-246)
chain: MPVQPPSKDTEEMEAEGDSAAEMNGEEEESEEERSGSQTESEEESSEMDDEDYERRRSECVSEMLDLEKQFSELKEKLFRERLSQLRLRLEEVGAERAPEYTEPLGGLQRSLKIRIQVAGIYKGFCLDVIRNKYECELQGAKQHLESEKLLLYDTLQGELQERIQRLEEDRQSLDLSSEWWDDKLHARGSSRSWDSLPPSKRKKAPLVSGPYIVYMLQEIDILEDWTAIKKARAAVSPQKRKSDGP
